The target in the experiment is T1, MBP-RIC1 (Arabidopsis thaliana) (UniProt F4IVV0).
T1 sequence: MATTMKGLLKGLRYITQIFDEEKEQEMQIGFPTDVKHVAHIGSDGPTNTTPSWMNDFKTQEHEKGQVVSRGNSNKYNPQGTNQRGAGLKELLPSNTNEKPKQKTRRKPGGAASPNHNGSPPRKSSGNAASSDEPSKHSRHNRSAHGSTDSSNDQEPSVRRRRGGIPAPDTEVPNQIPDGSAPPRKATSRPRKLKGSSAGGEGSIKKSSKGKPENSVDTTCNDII
Nature of the experiment: pull-down; MBP-RIC1-conjugated agarose beads incubated with extract of 35S::GFP-ROP6 seedlings (treated with indicated amounts of PG or without PG for 48 h) at 4°C for 3 h; washed five times; bound GFP-ROP6 detected by anti-GFP immunoblot; only the target purified.

The chains behind the UniProt entries cited, without tags or fusion partners.
UniProt Q38912: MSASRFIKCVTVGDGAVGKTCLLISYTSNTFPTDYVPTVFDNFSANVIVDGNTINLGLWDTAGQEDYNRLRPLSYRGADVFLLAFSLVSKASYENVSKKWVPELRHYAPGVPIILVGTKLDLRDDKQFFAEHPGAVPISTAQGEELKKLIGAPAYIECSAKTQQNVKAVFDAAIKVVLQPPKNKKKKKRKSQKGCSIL

These are yes or no findings as the source states them, for the method shown. Binding seen in cells or lysates may run through a third protein. Some entries that bind do so weakly or less than the wild type. Sequences can lack the tags named with a protein.

On to “GFP-tagged ROP6 (AtROP6) (from UniProt Q38912 1-198)”, for which the binding entry is given as “binds”.

The values above are taken from PMC5862815.
